Data taken from article PMC8205012.
Construct, isoform or probe ends are uncertain for at least one entry. At least one result comes from cells or an extract, where the contact may be indirect.

The chains behind the UniProt entries cited, without tags or fusion partners. Where a name states a change or a piece, a line headed by the entry shows the natural chain unless it says otherwise.
UniProt P26951: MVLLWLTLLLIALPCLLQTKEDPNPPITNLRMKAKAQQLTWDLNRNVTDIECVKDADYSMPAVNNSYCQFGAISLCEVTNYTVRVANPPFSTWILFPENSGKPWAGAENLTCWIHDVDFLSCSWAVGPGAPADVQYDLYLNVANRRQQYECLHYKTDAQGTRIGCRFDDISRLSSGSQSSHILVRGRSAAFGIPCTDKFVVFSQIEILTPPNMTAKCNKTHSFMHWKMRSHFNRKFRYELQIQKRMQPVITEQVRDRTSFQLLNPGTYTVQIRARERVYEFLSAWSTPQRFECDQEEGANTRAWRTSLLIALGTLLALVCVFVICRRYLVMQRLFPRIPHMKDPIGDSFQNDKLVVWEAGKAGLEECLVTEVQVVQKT

How the values were obtained:
[1] = target: CD123 (IL-3 receptor alpha) (UniProt P26951); experiment: competition with a labelled probe; conditions: Molm-13 cells, displaces 50 nM FAM-labeled CD123 antibody; Cell binding: 1e5 cells, 50 nM (flow) or 5 uM (confocal) FAM-DNA, 37 C, 30 min, PBS wash; protein on the cell surface; label: FAM (direct binding); single-stranded DNA; letters put together from the description
[2] = target: CD123 (IL-3 receptor alpha) (UniProt P26951); experiment: flow cytometry and confocal microscopy; conditions: Molm-13 cells, 50 nM (flow), 37 C, no binding to CD123-negative RCH-ACV, Cell binding: 1e5 cells, 50 nM (flow) or 5 uM (confocal) FAM-DNA, 30 min, PBS wash, protein on the cell surface, label: FAM (direct binding), single-stranded DNA, letters put together from the description

Does “TGCGTGTGTACTGTGTCTGGTCCCGTAGCTACTAGCGAACTCCCTGCCTCTTAGGGATTTGGGCGG [SS30]” bind [1]?
Result: binds

Does “TGCGTGTGTACTGTGTCTGGTCCCGTAGCTACTAGCGAACTCCCTGCCTCTTAGGGATTTGGGCGG [SS30]” bind [2]?
Result: binds
